Assay results from paper PMC11760092, “Pretreatment with serine protease inhibitors impairs Leishmania amazonensis survival on macrophages” (Parasites & Vectors, 2025).

Columns and labels:
[1] = test system: Leishmania amazonensis-WT promastigotes; assay: Antipromastigote assay (MTT); type: cell-based; conditions: CC50 in macrophages/IC50 in parasite
Procedure: Leishmania amazonensis–WT promastigotes, in the logarithmic phase of growth, were transferred to 96-well culture plates (final concentration 2 × 10^6 cells/mL) and exposed to different concentrations of inhbitors during 72 h at 25 °C. The cell viability was evaluated by the 3-(4,5-dimethylthiazol-2-yl)-2,5 diphenyltetrazolium bromide (MTT) method (obtained from Sigma-Aldrich). The inhibitory concentration of 50% of parasite growth (IC50) values were calculated using GraphPad Prism 8 software […]. Three independent experiments in triplicate were performed. Amphotericin B (Cristália, São Paulo, SP, Brazil) was used as a reference drug.

[2] = test system: L. amazonensis (RFP) amastigotes; assay: Antiamastigote assay (RFP fluorescence, infected peritoneal macrophages); type: cell-based, Leishmania amazonensis; conditions: CC50 in macrophages/IC50 in parasite
Procedure: Peritoneal macrophages from BALB/c mice were obtained by peritoneal lavage and distributed in 24-well plates at 2 × 10^6 cells/mL in RPMI medium (Cultilab) containing 10% FBS and a 0.5% penicillin and streptomycin solution (complete RPMI). The plates were incubated for 1 h at 37 °C and 5% CO2, washed with phosphate-buffered saline (PBS), and then reincubated in complete RPMI medium overnight. The cells were washed again with PBS and infected with stationary growth phase L. amazonensis (RFP) promastigotes at a 10:1 ratio for 4 h at 33 °C. The plates were washed with PBS and the inhibitors were added at different concentrations and incubated for 72 h. After this time, each well was scraped to remove attached cells and the reading was taken with a spectrofluorimeter (FLx800, BioTek Instruments, Winooski, VT, USA) at 530 nm and 590 nm of excitation and emission, respectively. […] All assays were performed in triplicate and repeated three times. Results were calculated as the percentage of amastigote survival compared with the nontreated control group, and IC50 values were determined using GraphPad Prism 8 software.

In the case of `Cc1ccc(S(=O)(=O)N[C@@H](Cc2ccccc2)C(=O)CCl)cc1` [TPCK, N-p-tosyl-L-phenylalanine chloromethyl ketone], the “Selectivity index (SI) Promastigote” value [1] is reported as 9.5 and the “Selectivity index (SI) Amastigote” value [2] is reported as 9.8.
